Laboratory results published in paper PMC10742089.
No constants are given. Whether binding was seen depends on the method and setting. In cells and extracts the contact can be indirect. Some results given as binding are weak or reduced against the parent protein; the word gives no strength.

Chains of the proteins cited; added tags and fusions are not shown.
UniProt Q13200: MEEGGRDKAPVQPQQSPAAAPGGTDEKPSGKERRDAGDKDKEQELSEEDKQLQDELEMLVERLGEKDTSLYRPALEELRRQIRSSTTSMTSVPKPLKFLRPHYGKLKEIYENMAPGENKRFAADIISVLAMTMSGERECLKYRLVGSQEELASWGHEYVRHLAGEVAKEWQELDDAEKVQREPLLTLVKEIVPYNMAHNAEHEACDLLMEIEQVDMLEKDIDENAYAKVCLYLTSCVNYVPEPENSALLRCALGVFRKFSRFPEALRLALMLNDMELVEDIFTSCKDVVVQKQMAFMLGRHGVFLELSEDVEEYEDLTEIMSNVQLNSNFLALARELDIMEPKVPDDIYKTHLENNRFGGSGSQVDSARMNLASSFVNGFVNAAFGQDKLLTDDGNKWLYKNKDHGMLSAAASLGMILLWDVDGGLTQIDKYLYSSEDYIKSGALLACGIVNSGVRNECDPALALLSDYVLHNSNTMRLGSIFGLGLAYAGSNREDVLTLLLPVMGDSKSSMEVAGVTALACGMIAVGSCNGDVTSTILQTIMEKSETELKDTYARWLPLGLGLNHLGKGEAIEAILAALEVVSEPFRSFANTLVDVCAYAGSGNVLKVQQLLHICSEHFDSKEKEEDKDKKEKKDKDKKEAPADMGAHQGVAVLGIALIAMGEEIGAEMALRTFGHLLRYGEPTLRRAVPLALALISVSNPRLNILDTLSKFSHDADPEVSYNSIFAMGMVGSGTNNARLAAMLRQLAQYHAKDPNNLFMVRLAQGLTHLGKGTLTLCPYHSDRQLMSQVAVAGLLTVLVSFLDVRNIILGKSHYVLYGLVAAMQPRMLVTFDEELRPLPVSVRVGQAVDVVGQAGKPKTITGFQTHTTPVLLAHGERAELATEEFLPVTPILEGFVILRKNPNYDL
UniProt Q15008: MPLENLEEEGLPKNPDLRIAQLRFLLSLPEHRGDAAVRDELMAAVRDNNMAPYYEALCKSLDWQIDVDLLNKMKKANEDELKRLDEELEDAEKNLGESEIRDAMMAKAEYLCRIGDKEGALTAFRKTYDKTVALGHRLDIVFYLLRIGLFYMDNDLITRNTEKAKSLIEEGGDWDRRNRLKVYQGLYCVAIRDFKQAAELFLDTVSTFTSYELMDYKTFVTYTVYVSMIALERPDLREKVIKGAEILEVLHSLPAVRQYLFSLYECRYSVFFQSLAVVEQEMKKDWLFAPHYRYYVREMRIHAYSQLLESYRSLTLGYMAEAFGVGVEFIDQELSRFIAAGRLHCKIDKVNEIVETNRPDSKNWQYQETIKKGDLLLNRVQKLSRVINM

Key:
GST-iso6 (human) [1] = molecular target: GST-iso6 (human) (UniProt Q06787); assay: pull-down; purified GST-iso6 or GST immobilised on glutathione agarose beads, incubated with U2OS total cell extract 1 h at 37 C, 150 mM NaCl, 0.5% NP-40 substitute; Western blot; only the target purified
GST-iso6 (human) [2] = molecular target: GST-iso6 (human) (UniProt Q06787); assay: pull-down; as the GST pull-down, with RNase A (10 ug/mL, 15 min at room temperature); only the target purified
[3] = molecular target: mEGFP-iso6 (FMRP nuclear isoform iso6 fused to GFP) (human) (UniProt Q06787); assay: co-IP; GFP-Trap agarose on lysate of U2OS stably expressing GFP-iso6, 2 h at 4 C, 150 mM NaCl, 0.5% NP-40 substitute; Western blot

Substance	binding (GST-iso6 (human) [1])	binding (GST-iso6 (human) [2])	binding [3]
AURKB (from UniProt Q96GD4 1-344)	binds		
PSMD2 (from UniProt Q13200 1-908)	binds	binds	binds
PSMD6 (from UniProt Q15008 1-389)	binds	binds	binds
